The list shows a part of the results.
What was measured:
Assay in all cases: log2 fold change, soluble protein after heating vs DMSO (PISA); higher = thermal stabilisation; K562 cells, 10 uM, 30 min; active = over 0.2 and 3.5 SD of the protein, either way, in both replicates (recomputed)
[1] = compound: CS(=O)(=O)c1ccc(-c2cnc(N)c(C(=O)Nc3ccccc3)n2)cc1
In short: (§1)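 K562 cells at 2×10^6 cells/mL were given 10 μM compound for 30 min. Aliquots then went through 3 min of heating across 48°C-58°C, were pooled, and were extracted in PBS with 0.5% NP-40 at 4°C, and the supernatant after 21,000xg for 90 min was quantified by TMTpro 16plex LC-MS/MS with channel sums equalised. Thermal stability relative to control samples, from duplicates, is given as log2 fold change.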

Sequences of proteins named here, by UniProt entry; tags and fusion partners are left off. A change or cut given only in a name is not applied to a line headed by its entry.
UniProt Q86XP3: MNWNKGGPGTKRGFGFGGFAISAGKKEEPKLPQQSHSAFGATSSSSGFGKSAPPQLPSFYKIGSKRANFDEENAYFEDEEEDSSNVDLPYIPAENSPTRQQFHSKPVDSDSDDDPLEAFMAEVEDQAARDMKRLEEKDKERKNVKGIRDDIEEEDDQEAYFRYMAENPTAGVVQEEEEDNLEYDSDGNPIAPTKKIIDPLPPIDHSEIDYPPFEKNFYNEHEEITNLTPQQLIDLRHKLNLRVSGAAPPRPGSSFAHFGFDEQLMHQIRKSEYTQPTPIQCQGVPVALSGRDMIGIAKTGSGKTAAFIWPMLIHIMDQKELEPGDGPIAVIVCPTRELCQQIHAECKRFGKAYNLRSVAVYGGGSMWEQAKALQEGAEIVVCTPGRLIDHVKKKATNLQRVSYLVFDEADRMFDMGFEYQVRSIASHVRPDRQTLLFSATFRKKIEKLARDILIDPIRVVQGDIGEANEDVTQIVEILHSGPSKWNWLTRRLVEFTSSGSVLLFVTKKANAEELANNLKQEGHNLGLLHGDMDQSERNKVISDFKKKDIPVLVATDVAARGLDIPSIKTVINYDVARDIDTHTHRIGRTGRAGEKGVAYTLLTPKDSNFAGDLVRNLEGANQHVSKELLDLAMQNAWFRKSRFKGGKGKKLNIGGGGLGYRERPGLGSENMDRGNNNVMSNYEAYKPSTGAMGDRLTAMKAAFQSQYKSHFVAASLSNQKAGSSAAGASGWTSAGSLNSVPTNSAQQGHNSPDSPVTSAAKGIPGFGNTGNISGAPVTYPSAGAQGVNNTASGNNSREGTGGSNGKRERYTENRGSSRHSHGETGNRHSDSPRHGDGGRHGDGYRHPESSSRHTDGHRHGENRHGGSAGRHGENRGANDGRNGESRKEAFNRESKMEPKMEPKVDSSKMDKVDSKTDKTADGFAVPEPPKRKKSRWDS
UniProt O43583: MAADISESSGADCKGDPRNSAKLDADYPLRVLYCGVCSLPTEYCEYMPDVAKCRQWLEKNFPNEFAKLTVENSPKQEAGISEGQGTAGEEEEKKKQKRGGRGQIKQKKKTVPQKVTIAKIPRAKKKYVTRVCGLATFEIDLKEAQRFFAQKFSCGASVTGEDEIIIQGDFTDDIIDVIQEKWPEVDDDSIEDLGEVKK
UniProt Q9UHI6: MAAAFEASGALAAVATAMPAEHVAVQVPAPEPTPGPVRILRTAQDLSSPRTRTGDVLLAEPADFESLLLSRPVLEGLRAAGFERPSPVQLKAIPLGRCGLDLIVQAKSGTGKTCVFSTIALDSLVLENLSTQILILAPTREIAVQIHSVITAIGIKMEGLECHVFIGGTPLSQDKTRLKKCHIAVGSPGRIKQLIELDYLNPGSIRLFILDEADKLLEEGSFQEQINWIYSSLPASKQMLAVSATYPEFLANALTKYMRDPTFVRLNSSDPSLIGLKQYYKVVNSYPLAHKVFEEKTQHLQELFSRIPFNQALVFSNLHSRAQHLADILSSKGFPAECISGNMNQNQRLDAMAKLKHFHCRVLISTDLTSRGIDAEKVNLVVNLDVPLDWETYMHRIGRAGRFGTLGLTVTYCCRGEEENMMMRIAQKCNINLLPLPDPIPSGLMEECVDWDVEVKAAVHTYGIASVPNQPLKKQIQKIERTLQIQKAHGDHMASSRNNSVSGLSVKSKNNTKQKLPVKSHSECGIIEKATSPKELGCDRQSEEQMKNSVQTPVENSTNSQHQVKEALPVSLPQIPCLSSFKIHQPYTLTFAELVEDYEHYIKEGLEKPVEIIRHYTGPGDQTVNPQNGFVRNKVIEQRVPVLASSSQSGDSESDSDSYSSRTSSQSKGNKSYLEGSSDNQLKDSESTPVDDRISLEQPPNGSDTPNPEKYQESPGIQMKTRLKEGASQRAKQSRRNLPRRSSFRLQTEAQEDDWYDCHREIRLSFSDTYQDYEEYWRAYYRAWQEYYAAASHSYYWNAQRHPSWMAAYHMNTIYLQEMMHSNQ
UniProt Q7Z478: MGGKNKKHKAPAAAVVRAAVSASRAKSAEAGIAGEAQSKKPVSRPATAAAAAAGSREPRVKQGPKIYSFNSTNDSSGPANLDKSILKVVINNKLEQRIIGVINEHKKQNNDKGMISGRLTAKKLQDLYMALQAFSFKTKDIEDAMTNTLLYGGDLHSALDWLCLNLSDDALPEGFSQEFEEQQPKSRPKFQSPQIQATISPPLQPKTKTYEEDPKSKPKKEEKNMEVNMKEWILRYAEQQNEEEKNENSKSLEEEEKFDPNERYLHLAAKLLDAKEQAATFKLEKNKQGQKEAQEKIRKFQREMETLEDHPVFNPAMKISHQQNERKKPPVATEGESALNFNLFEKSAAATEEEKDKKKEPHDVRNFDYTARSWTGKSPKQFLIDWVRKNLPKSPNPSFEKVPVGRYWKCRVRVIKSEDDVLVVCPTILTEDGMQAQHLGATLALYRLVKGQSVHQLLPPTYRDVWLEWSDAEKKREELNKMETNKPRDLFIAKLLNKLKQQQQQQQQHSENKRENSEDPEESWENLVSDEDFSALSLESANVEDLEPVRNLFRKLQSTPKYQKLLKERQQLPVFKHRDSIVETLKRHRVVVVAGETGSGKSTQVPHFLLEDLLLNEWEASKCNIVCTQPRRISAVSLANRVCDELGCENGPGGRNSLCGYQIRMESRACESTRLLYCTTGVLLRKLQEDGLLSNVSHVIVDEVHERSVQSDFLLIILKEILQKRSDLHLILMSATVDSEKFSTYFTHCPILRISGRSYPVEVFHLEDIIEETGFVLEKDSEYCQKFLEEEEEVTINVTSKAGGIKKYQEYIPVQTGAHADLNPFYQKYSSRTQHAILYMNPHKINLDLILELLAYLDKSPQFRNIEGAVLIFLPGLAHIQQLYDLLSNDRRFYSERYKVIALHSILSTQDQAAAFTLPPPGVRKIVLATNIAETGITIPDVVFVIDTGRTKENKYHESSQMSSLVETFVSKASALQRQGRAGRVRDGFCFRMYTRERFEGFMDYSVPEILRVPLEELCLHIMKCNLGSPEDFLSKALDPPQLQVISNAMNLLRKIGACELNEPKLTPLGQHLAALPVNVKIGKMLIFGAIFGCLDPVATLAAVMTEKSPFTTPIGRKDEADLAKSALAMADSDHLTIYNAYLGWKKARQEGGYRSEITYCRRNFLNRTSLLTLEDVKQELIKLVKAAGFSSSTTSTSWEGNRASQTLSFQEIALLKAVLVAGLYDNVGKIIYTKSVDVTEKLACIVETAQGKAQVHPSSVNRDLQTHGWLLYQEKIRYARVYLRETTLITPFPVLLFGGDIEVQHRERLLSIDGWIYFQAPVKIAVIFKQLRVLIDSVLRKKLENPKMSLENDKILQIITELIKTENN
UniProt Q92499: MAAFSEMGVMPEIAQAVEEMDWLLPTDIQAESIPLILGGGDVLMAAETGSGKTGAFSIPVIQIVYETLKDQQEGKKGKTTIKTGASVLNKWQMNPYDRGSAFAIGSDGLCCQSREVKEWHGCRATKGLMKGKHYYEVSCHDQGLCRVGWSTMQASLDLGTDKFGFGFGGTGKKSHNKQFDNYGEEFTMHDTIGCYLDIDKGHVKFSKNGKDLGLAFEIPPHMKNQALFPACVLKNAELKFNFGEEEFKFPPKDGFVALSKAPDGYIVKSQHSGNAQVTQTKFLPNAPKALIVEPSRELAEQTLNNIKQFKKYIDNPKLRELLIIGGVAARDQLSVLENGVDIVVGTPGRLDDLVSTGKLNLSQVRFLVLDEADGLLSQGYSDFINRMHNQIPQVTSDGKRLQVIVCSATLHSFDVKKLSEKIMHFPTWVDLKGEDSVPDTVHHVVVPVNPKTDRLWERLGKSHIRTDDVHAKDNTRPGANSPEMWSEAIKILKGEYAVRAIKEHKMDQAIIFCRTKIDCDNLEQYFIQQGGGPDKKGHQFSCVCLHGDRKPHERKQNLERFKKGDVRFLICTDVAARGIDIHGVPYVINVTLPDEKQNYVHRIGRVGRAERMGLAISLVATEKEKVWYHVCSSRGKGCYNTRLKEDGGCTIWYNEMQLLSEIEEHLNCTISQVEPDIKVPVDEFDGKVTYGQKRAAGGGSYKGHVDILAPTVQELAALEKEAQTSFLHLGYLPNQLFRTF
UniProt O95865: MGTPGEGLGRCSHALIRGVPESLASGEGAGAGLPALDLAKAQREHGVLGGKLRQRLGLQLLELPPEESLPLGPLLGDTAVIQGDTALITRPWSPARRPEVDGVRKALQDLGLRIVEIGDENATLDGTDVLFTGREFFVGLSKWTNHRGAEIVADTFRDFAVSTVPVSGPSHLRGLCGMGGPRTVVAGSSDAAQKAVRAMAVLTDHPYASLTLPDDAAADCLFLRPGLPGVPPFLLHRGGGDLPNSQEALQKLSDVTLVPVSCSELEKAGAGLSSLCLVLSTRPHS
UniProt Q9BUN8: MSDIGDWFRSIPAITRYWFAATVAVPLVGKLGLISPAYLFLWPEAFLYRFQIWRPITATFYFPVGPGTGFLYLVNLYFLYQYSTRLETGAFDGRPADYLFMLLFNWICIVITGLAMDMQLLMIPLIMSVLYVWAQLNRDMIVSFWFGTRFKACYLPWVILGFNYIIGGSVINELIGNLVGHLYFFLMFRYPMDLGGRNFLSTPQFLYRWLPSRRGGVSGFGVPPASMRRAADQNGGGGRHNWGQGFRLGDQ
UniProt Q8WYQ5: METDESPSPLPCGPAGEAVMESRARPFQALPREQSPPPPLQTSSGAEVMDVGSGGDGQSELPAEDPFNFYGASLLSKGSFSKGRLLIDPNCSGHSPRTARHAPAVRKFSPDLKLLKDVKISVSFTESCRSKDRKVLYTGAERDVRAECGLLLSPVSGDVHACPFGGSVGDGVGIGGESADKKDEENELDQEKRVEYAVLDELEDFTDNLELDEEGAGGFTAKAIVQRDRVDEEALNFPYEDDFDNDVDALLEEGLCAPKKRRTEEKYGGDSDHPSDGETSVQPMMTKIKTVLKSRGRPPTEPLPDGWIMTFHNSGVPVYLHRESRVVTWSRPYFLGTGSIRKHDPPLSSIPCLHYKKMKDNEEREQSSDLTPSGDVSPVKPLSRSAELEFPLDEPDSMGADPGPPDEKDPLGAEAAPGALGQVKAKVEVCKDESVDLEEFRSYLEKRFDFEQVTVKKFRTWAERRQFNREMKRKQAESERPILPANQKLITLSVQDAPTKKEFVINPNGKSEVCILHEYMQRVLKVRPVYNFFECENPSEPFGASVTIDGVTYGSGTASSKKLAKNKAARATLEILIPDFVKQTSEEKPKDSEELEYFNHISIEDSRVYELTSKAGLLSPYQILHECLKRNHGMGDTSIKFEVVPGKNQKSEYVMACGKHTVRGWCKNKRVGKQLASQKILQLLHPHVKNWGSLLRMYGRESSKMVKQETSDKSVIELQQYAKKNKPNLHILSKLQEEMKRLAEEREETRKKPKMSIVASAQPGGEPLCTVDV
UniProt Q5T1V6: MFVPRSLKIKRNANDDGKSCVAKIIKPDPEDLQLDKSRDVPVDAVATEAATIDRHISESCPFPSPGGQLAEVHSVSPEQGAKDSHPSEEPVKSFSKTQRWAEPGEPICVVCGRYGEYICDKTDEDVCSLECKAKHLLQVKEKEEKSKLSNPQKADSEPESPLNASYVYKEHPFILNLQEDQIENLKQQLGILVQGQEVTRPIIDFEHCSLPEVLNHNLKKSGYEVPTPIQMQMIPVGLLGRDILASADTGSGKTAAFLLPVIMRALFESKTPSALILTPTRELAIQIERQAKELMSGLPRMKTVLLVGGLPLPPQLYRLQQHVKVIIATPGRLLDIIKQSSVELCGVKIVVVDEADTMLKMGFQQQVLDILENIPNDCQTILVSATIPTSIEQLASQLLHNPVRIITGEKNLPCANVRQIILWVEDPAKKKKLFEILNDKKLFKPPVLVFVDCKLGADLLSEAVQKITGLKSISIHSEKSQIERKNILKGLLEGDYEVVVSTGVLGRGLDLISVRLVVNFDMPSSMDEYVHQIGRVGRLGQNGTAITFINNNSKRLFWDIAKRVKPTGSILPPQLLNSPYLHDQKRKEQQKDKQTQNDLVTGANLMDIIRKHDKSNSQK
UniProt Q9NUU7: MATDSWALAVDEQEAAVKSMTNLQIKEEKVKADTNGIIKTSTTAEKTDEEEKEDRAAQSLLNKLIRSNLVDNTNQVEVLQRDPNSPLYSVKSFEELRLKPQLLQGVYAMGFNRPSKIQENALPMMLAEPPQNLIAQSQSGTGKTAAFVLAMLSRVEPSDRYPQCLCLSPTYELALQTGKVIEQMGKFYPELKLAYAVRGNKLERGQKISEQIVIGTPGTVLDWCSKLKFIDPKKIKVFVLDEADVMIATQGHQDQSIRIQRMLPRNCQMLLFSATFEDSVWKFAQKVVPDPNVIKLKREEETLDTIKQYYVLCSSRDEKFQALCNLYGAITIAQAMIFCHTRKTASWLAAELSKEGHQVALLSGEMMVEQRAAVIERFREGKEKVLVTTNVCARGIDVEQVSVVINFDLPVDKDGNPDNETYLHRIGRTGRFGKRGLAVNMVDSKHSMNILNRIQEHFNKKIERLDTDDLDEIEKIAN

crizotinib = compound: C[C@@H](Oc1cc(-c2cnn(C3CCNCC3)c2)cnc1N)c1c(Cl)ccc(F)c1Cl [crizotinib]
In short: as §1

[2] = compound: C[C@@H]1COCCN1C2=NC(=NC(=C2)C3(CC3)S(=O)(=O)C)C4=C5C=CNC5=CC=C4
In short: as §1

[3] = compound: C[C@H](C1=CC=C(C=C1)C(=O)NC2=C3C=CNC3=NC=C2)N
In short: as §1

duvelisib = compound: C[C@H](Nc1ncnc2nc[nH]c12)c1cc2cccc(Cl)c2c(=O)n1-c1ccccc1 [duvelisib]
In short: as §1

gandotinib = compound: Cc1cc(Nc2cc(CN3CCOCC3)c3nc(C)c(Cc4ccc(Cl)cc4F)n3n2)n[nH]1 [gandotinib]
In short: as §1

tozasertib = compound: Cc1cc(Nc2cc(N3CCN(C)CC3)nc(Sc3ccc(NC(=O)C4CC4)cc3)n2)n[nH]1 [tozasertib]
In short: as §1

[4] = compound: Cc1cc(SCc2sc(-c3ccc(C(F)(F)F)cc3)nc2C)ccc1OCC(=O)O
In short: as §1

doramapimod = compound: Cc1ccc(-n2nc(C(C)(C)C)cc2NC(=O)Nc2ccc(OCCN3CCOCC3)c3ccccc23)cc1 [doramapimod]
In short: as §1

ispinesib = compound: Cc1ccc(C(=O)N(CCCN)[C@@H](c2nc3cc(Cl)ccc3c(=O)n2Cc2ccccc2)C(C)C)cc1 [ispinesib]
In short: as §1

bafetinib = compound: Cc1ccc(NC(=O)c2ccc(CN3CC[C@H](N(C)C)C3)c(C(F)(F)F)c2)cc1Nc1nccc(-c2cncnc2)n1 [bafetinib]
In short: as §1

[5] = compound: Cc1cccc(CC(=O)N2CCc3c2ccc(-c2cn(C)c4ncnc(N)c24)c3F)n1
In short: as §1

nilotinib = compound: Cc1cn(-c2cc(NC(=O)c3ccc(C)c(Nc4nccc(-c5cccnc5)n4)c3)cc(C(F)(F)F)c2)cn1 [nilotinib]
In short: as §1

[6] = compound: Cc1nc(Nc2n[nH]c3c2CN(C(=O)N[C@H](CN(C)C)c2ccccc2)C3(C)C)c2sccc2n1
In short: as §1

dasatinib = compound: Cc1nc(Nc2ncc(C(=O)Nc3c(C)cccc3Cl)s2)cc(N2CCN(CCO)CC2)n1 [dasatinib]
In short: as §1

[7] = compound: Cc1ncc(-c2ccnc(Nc3ccc(S(C)(=O)=O)cc3)n2)n1C(C)C
In short: as §1

[8] = compound: Cn1cc(-c2ccc3c(c2)CCN3C(=O)Cc2cccc(C(F)(F)F)c2)c2c(N)ncnc21
In short: as §1

[9] = compound: Cn1cc(-c2ccc3nnc(C(F)(F)c4ccc5ncccc5c4)n3n2)cn1
In short: as §1

tipifarnib = compound: Cn1cncc1[C@@](N)(c1ccc(Cl)cc1)c1ccc2c(c1)c(-c1cccc(Cl)c1)cc(=O)n2C [tipifarnib]
In short: as §1

mubritinib = compound: FC(F)(F)c1ccc(/C=C/c2nc(COc3ccc(CCCCn4ccnn4)cc3)co2)cc1 [mubritinib]
In short: as §1

Measured: log2 fold change

DHX8 (UniProt Q14562)
inactive: [1] 0.015 | crizotinib 0.004 | [2] 0.041 | [3] 0.139 | duvelisib 0.135 | gandotinib -0.135 | tozasertib -0.004 | [4] -0.049 | doramapimod 0.033 | ispinesib 0 | bafetinib -0.034 | [5] -0.229 | nilotinib -0.054 | [6] 0.07 | dasatinib 0.028 | [7] -0.055 | [8] -0.008 | [9] 0.049 | tipifarnib 0.071 | mubritinib 0.009

DENND4A isoform 2 (UniProt Q7Z401)
inactive: [1] -0.096 | crizotinib 0.029 | [2] -0.082 | [3] 0.043 | duvelisib 0.12 | gandotinib -0.094 | tozasertib 0.023 | [4] 0.08 | doramapimod -0.116 | ispinesib -0.136 | bafetinib -0.05 | [5] 0.024 | nilotinib -0.075 | [6] -0.223 | dasatinib -0.256 | [7] -0.051 | [8] -0.107 | [9] -0.071 | tipifarnib -0.07 | mubritinib -0.236

DDX42 (UniProt Q86XP3)
inactive: [1] 0.069 | crizotinib 0.031 | [2] 0.356 | [3] 0.032 | duvelisib 0.26 | gandotinib -0.131 | tozasertib -0.009 | [4] 0.216 | doramapimod 0.139 | ispinesib 0.059 | bafetinib 0.109 | [5] 0.04 | dasatinib -0.339 | [8] -0.098 | [9] 0.026 | tipifarnib -0.244

DIS3 (UniProt Q9Y2L1)
inactive: [1] 0.021 | crizotinib -0.048 | [2] 0.121 | [3] -0.053 | duvelisib 0.059 | gandotinib -0.069 | tozasertib 0.057 | [4] 0.139 | doramapimod -0.049 | ispinesib -0.051 | bafetinib -0.032 | [5] 0.096 | nilotinib -0.105 | [6] -0.104 | dasatinib -0.215 | [7] -0.016 | [8] 0.077 | [9] 0.106 | tipifarnib -0.099 | mubritinib 0.062

Reprinted from the entries so far (2 entries):
DENND4A isoform 2 (UniProt Q7Z401)
inactive: [1] -0.096 | crizotinib 0.029 | [2] -0.082 | [3] 0.043 | duvelisib 0.12 | gandotinib -0.094 | tozasertib 0.023 | [4] 0.08 | doramapimod -0.116 | ispinesib -0.136 | bafetinib -0.05 | [5] 0.024 | nilotinib -0.075 | [6] -0.223 | dasatinib -0.256 | [7] -0.051 | [8] -0.107 | [9] -0.071 | tipifarnib -0.07 | mubritinib -0.236

DDX42 (UniProt Q86XP3)
inactive: [1] 0.069 | crizotinib 0.031 | [2] 0.356 | [3] 0.032 | duvelisib 0.26 | gandotinib -0.131 | tozasertib -0.009 | [4] 0.216 | doramapimod 0.139 | ispinesib 0.059 | bafetinib 0.109 | [5] 0.04 | dasatinib -0.339 | [8] -0.098 | [9] 0.026 | tipifarnib -0.244

Carrying on:

DENR (UniProt O43583)
inactive: [1] 0.007 | crizotinib 0.036 | [2] 0.019 | [3] -0.027 | duvelisib -0.004 | gandotinib 0.011 | tozasertib -0.018 | [4] -0.042 | doramapimod -0.05 | ispinesib 0.031 | bafetinib -0.024 | [5] -0.039 | nilotinib 0.044 | [6] -0.005 | dasatinib 0.072 | [7] -0.025 | [8] -0.019 | [9] 0.023 | tipifarnib 0.074 | mubritinib 0.02

DDX20 (UniProt Q9UHI6)
inactive: [1] 0.02 | crizotinib -0.167 | [2] -0.259 | [3] 0.517 | duvelisib 0.009 | gandotinib 0.063 | tozasertib 0 | [4] 0.007 | doramapimod 0.106 | ispinesib -0.174 | bafetinib 0.193 | [5] 0.063 | nilotinib -0.132 | [6] -0.26 | dasatinib -0.056 | [7] 0.056 | [8] -0.401 | [9] -0.05 | tipifarnib -0.038 | mubritinib -0.107

DIS3L2 (UniProt Q8IYB7)
inactive: [1] -0.017 | crizotinib 0.096 | [2] -0.018 | [3] 0.116 | duvelisib -0.079 | gandotinib 0.048 | tozasertib -0.009 | [4] 0.018 | doramapimod 0.052 | ispinesib -0.009 | bafetinib -0.03 | [5] -0.031 | nilotinib -0.014 | [6] 0.09 | dasatinib 0.035 | [7] -0.037 | [8] 0.041 | [9] -0.054 | tipifarnib 0.057 | mubritinib 0.068

DHX29 (UniProt Q7Z478)
inactive: [1] -0.076 | crizotinib -0.029 | [2] -0.284 | [3] 0.145 | duvelisib -0.053 | gandotinib -0.062 | tozasertib -0.023 | [4] 0.03 | doramapimod 0.084 | ispinesib -0.133 | bafetinib 0.092 | [5] 0.059 | nilotinib 0.02 | [6] -0.013 | dasatinib 0.003 | [7] 0.08 | [8] -0.092 | [9] -0.154 | tipifarnib 0.037 | mubritinib -0.007

DDX1 (UniProt Q92499)
inactive: [1] 0.008 | crizotinib -0.079 | [2] -0.138 | [3] 0.223 | duvelisib -0.042 | gandotinib 0.071 | tozasertib 0.035 | [4] 0.067 | doramapimod 0.168 | ispinesib -0.031 | bafetinib 0.195 | [5] 0.034 | nilotinib 0.031 | [6] 0.01 | dasatinib -0.027 | [7] 0.018 | [8] -0.066 | [9] -0.098 | tipifarnib -0.089 | mubritinib -0.038

DDAH2 (UniProt O95865)
inactive: [1] 0.015 | crizotinib 0.077 | [2] 0.141 | [3] -0.086 | duvelisib 0.07 | gandotinib 0.039 | tozasertib 0.03 | [4] -0.001 | doramapimod 0.013 | ispinesib 0.066 | bafetinib -0.017 | [5] -0.039 | nilotinib 0.03 | [6] -0.019 | dasatinib 0.11 | [7] 0.002 | [8] 0.109 | [9] 0.074 | tipifarnib -0.034 | mubritinib 0.032

DIS3L (UniProt Q8TF46)
inactive: [1] 0.227 | crizotinib -0.038 | [2] -0.073 | [3] 0.197 | duvelisib 0.21 | tozasertib -0.098 | [4] -0.11 | doramapimod 0.107 | ispinesib 0.003 | nilotinib 0.146 | [6] 0.09 | dasatinib -0.085 | [7] -0.071 | [8] -0.226 | [9] -0.312 | tipifarnib 0.169 | mubritinib -0.37

DERL1 (UniProt Q9BUN8)
inactive: [1] -0.01 | crizotinib 0.043 | [2] -0.12 | [3] -0.046 | duvelisib 0.041 | gandotinib 0.037 | tozasertib -0.045 | [4] -0.11 | doramapimod -0.066 | ispinesib 0.003 | bafetinib -0.008 | [5] 0.132 | nilotinib 0.001 | [6] -0.132 | dasatinib 0.006 | [7] -0.013 | [8] 0.027 | [9] 0.092 | tipifarnib 0.096 | mubritinib 0.107

DHX38 (UniProt Q92620)
inactive: [1] -0.005 | crizotinib 0.013 | [2] 0.044 | [3] 0.015 | duvelisib 0.03 | gandotinib 0.079 | tozasertib -0.013 | [4] -0.009 | doramapimod -0.006 | ispinesib 0.014 | bafetinib -0.055 | [5] -0.094 | nilotinib 0.022 | [6] 0.071 | dasatinib -0.028 | [7] -0.009 | [8] 0.003 | [9] 0.019 | tipifarnib -0.01 | mubritinib 0.034

DGCR8 (UniProt Q8WYQ5)
inactive: [1] -0.071 | crizotinib -0.153 | [2] -0.384 | [3] 0.237 | duvelisib -0.098 | gandotinib 0.167 | tozasertib 0.032 | [4] 0.069 | doramapimod 0.13 | ispinesib 0.001 | bafetinib 0.177 | [5] -0.042 | nilotinib -0.014 | [6] -0.031 | dasatinib 0.13 | [7] 0.041 | [8] -0.247 | [9] -0.055 | tipifarnib 0.083 | mubritinib -0.134

DDX59 (UniProt Q5T1V6)
inactive: [1] 0.057 | crizotinib 0.043 | [2] 0.008 | [3] -0.031 | duvelisib 0.126 | gandotinib 0.009 | tozasertib 0.017 | [4] 0.06 | doramapimod 0.031 | ispinesib 0.008 | bafetinib -0.034 | [5] -0.099 | nilotinib 0.04 | [6] -0.044 | dasatinib -0.112 | [7] 0.017 | [8] -0.037 | [9] 0 | tipifarnib -0.059 | mubritinib 0.144

DDX19A (UniProt Q9NUU7)
inactive: [1] 0.035 | crizotinib -0.018 | [2] 0.044 | [3] -0.082 | duvelisib -0.009 | gandotinib 0.032 | tozasertib 0.01 | [4] -0.029 | doramapimod -0.026 | ispinesib 0.014 | bafetinib -0.102 | [5] -0.048 | nilotinib -0.082 | [6] -0.099 | dasatinib -0.09 | [7] -0.004 | [8] 0.048 | [9] 0.003 | tipifarnib -0.093 | mubritinib -0.113

Reference: the supplement of paper PMC10849652
